{"source": "PubChem BioAssay AID1508600", "about": "(Functional Genomics Laboratory (NCATS/FGL), 2020)", "note": "Hit rate of the full screen: of about 53,000 sequences, about 3,700 (7%) were called active.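 Rule for the calls: active = gene knockdowns whose robust z-score for IL-1 alpha signal is at least 2 or at most -2, so actives lie on both sides; inactive = the rest.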 The list shows a part of the results.", "data": [{"assay": "Components of the Cytosolic LPS Sensing Pathway: Gene Identification via Genome-wide siRNA Screen;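 note: robust z of the log signal after scaling to non-targeting control siRNA wells of the plate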", "conditions": "RAW264.7 macrophages, IL-1a HTRF, actives lie on both sides, screened at 100 nM (by protocol), cells primed 5 h with Pam3CSK4 first", "summary_of_the_method": "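RAW264.7 mouse macrophages reverse-transfected with single siRNAs (100 nM final) for 48h, primed with Pam3CSK4 for 5 hours, then transfected with LipidA for 24 hour. Supernatant IL-1a read by HTRF; values normalized to negative-control median, log-transformed robust z-scores.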", "values": [{"sequence": "GGGUUGUCUUCAUCUACUUTT against Crhr1", "z-score": "active: 3.47"}, {"sequence": "GGCAAGUUUGAGUUUUAGUTT against Zc3h12d", "z-score": "inactive: 1.36"}, {"sequence": "GCCCAGAUACAACCAGACUTT against Ticam1", "z-score": "inactive: 1.46"}, {"sequence": "GGUUUAAGGUAGUUCAUGATT against Faf1", "z-score": "inactive: -0.0439"}, {"sequence": "GCGGAAUGUACCAAGACGATT against Apoh", "z-score": "inactive: 0.222"}, {"sequence": "CCAUACAGAGGUGACAGUUTT against Olfr816", "z-score": "inactive: -0.23"}, {"sequence": "GGACUGAGAAAAUGUAUAUTT against Nek3", "z-score": "inactive: -0.968"}, {"sequence": "GGAUUAGUGCAGGAAUCAATT against Rel", "z-score": "inactive: 0.922"}, {"sequence": "GGGUAAAAGUUGAGUAAAATT against Ppp1r14c", "z-score": "inactive: -1.25"}, {"sequence": "GGUCUCCAUAAGUGUCAGCTT against Cntfr", "z-score": "inactive: -0.407"}, {"sequence": "GGAAAAGAAAGUCUGCCAATT against Egfr", "z-score": "inactive: 0.364"}, {"sequence": "GCUCUAUGAACCAGCUUCATT against Plekha6", "z-score": "inactive: 0.272"}, {"sequence": "CGGCGACAUUGUUUUGCUATT against Acvr2a", "z-score": "inactive: 1.19"}, {"sequence": "GGUCAUUCUUAAUUGUUCATT against Kpna6", "z-score": "inactive: 0.939"}, {"sequence": "CGCAUCAGUUUCUAUAAGATT against Rp1", "z-score": "inactive: 0.192"}, {"sequence": "GGACUCUCCUAUGUUAUAGTT against Nphs2", "z-score": "inactive: 0.183"}, {"sequence": "GGCAACAUGGUGAUCAUCGTT against Olfr323", "z-score": "inactive: -0.461"}, {"sequence": "GGGCCCGAUAGAUAUAAACTT against B4galt5", "z-score": "inactive: 0.127"}, {"sequence": "GGAGUCCUGAAGAAUAAAGTT against Tff3", "z-score": "inactive: -0.0657"}, {"sequence": "GCACUUGGGUAAAAAACUCTT against Bcorl1", "z-score": "inactive: 0.394"}, {"sequence": "AUCUAUUCGAAUCAGGAAGTT against Epsti1", "z-score": "inactive: -0.102"}, {"sequence": "GGGAAAAAGCUAGAAAAAGTT against Gp1ba", "z-score": "inactive: 0.412"}, {"sequence": "CCUGAUGCACUACUCGUCUTT against Dmbx1", "z-score": "inactive: -0.131"}, {"sequence": "GGAGAAAGGAUCUCAGUGUTT against Miga1", "z-score": "inactive: -0.532"}, {"sequence": "GGAAAAGACUAACGAGCGGTT against Med11", "z-score": "inactive: -0.703"}, {"sequence": "GGCUGUGGAUCUUCUCUGUTT against Cnksr3", "z-score": "inactive: -1.05"}, {"sequence": "GGUCUUUAUUUACCUCUUUTT against Cyp2c39", "z-score": "inactive: 0.659"}, {"sequence": "GCAACGAAGUGAAUUUGUUTT against Epha5", "z-score": "inactive: -0.139"}, {"sequence": "GAUAUAAUUACUGAACCACTT against Gm5128", "z-score": "inactive: -0.00502"}, {"sequence": "GGUUUGAGGCGAGCUAACUTT against Rph3a", "z-score": "inactive: 0.244"}, {"sequence": "GGCCUAUUCAAAAAUCAGCTT against Fndc7", "z-score": "inactive: -0.186"}, {"sequence": "GGAACAUCUUUCUUCUCCATT against Abhd4", "z-score": "inactive: -0.869"}, {"sequence": "CGGCAGAUUGCUGCUUUGATT against Vmn2r122", "z-score": "active: 2.73"}, {"sequence": "GGAGGAGUGAUUGUUAUACTT against Slfn9", "z-score": "inactive: -0.499"}, {"sequence": "CCACUUUCACCACAAAGUCTT against Klre1", "z-score": "inactive: -0.384"}, {"sequence": "GGAAGCUGGCUGGAAAGAUTT against Saa2", "z-score": "inactive: 1.16"}, {"sequence": "GGUUAUUUUGUUGGAAGUCTT against Csrnp2", "z-score": "inactive: -0.231"}, {"sequence": "GUGAUAAAUGCUGAUAGUGTT against Olfr1280", "z-score": "inactive: -0.515"}, {"sequence": "CGGGCUGCUACGAAAAAGUTT against Tspan9", "z-score": "inactive: 0.152"}, {"sequence": "GGAUUAUCCUGGCUUGUUGTT against Rdh12", "z-score": "inactive: -0.962"}, {"sequence": "GCAUAUGAUUAUUCUGGGATT against Cox7a2l", "z-score": "inactive: -0.203"}, {"sequence": "CGUUUGAAUAAUUCAGAGUTT against Armcx2", "z-score": "inactive: -0.152"}, {"sequence": "GGACGGACCUUUGUGUCUCTT against Axl", "z-score": "inactive: 0.13"}, {"sequence": "GGGUUACUUUAGCUAUUUCTT against Rbm14", "z-score": "inactive: -1.11"}, {"sequence": "GGAACAGUGAUCCAUUUUATT against Btf3", "z-score": "inactive: 0.11"}, {"sequence": "GGGUCCUUUUUCACAUGGUTT against Asph", "z-score": "active: 2.82"}, {"sequence": "GGUGGACCUGAAACGUAGCTT against Inhbb", "z-score": "inactive: 0.878"}, {"sequence": "CCUGCCAAGCAGAUUUUAUTT against Rtbdn", "z-score": "inactive: -1.46"}, {"sequence": "GGAGAAUGUGCAUAAACUGTT against Pitpna", "z-score": "inactive: -0.0799"}, {"sequence": "GGCUGAUGGAAUUGUCUCATT against Rps21", "z-score": "inactive: -0.712"}, {"sequence": "GGAGCUUGCUCAGACUACUTT against Cct8", "z-score": "inactive: -0.914"}, {"sequence": "GGUUGAGUACACCAAGAAUTT against Dcx", "z-score": "inactive: 0.961"}, {"sequence": "GGUUCUAAAACUUAACAAGTT against Brf2", "z-score": "active: 2.7"}, {"sequence": "GCAACCUGAUAGUGUGGUCTT against Crisp1", "z-score": "inactive: 1.53"}, {"sequence": "GCCUUCUGAGAUAGUAGAUTT against Zcchc17", "z-score": "inactive: 0.756"}, {"sequence": "GGAACAAGUGGUAUUCCCGTT against Pip4p2", "z-score": "inactive: 0.329"}, {"sequence": "GGGUUCAAGAGAUGGGAAUTT against Efna5", "z-score": "inactive: 0.453"}, {"sequence": "GCUUCGAAGGCAAAUGUGGTT against Vamp4", "z-score": "inactive: -0.142"}, {"sequence": "GGAGCUGGAACAGAUGGAATT against Atf5", "z-score": "inactive: 0.967"}, {"sequence": "CCUUAGGACAAGUAUUCUGTT against Cbx6", "z-score": "inactive: 0.47"}, {"sequence": "GGAAGAAUUGAAUUGUAUGTT against Pom121", "z-score": "inactive: 1.37"}, {"sequence": "GGCAAUGAUGAGACCUAGUTT against Mybbp1a", "z-score": "inactive: 0.0956"}, {"sequence": "GGUGUCUGUCAUGACCAUGTT against Tie1", "z-score": "inactive: 0.907"}, {"sequence": "CCAGUAAACCUACAUGUUCTT against Htr3b", "z-score": "inactive: -0.024"}, {"sequence": "GGCUACAAAGAUGCAGACUTT against Pi4k2a", "z-score": "inactive: 0.22"}, {"sequence": "CCCAAAUCCUACGAAGCCUTT against Tanc1", "z-score": "inactive: -1.9"}, {"sequence": "GGAUCACUACAAGUUGGCUTT against Gtpbp4", "z-score": "inactive: -1.52"}, {"sequence": "CCUUUGGACGCAACCAGUUTT against Ugt1a6b", "z-score": "active: 2.04"}, {"sequence": "CCUCAAUCCUGGUCUAAAATT against Plcl2", "z-score": "inactive: -0.342"}, {"sequence": "UGCCAUGGGACUCAUAGGCTT against Olfr160", "z-score": "inactive: -1.76"}, {"sequence": "GGAACACCUUGAAUGAUGUTT against Efcab9", "z-score": "inactive: -1.76"}, {"sequence": "GGCUGUCCAGACUAGUUCUTT against Lsm14b", "z-score": "inactive: -0.317"}, {"sequence": "CCAUUCUCCUCAGAUACUCTT against Slc25a17", "z-score": "inactive: -1.38"}, {"sequence": "GGUUCACCAUCAAACCCUUTT against Plbd2", "z-score": "inactive: -0.69"}, {"sequence": "GCAAACUGUGGACAUUUAATT against Gabra5", "z-score": "inactive: 0.82"}, {"sequence": "AAUCUUGAGAGAUUUCUCCTT against Scd2", "z-score": "inactive: -0.047"}, {"sequence": "GGUCAUAUGAGCGCACAGGTT against Ccnl2", "z-score": "inactive: 0.748"}, {"sequence": "CCCAGAUGGAUUUUUGCAUTT against Gm10413", "z-score": "inactive: 0.102"}, {"sequence": "GGCAUUCGAGGAGACUCAUTT against Pnpo", "z-score": "inactive: -1.61"}, {"sequence": "GCACUCACAUUGAAUUAAATT against Haus2", "z-score": "inactive: -0.285"}, {"sequence": "GGUAUUUGAAGGGACAUCUTT against Atp6v1b2", "z-score": "inactive: -0.817"}, {"sequence": "GCUCCCUUCCCAAUAAAGCTT against Gadd45gip1", "z-score": "inactive: 0.208"}, {"sequence": "GGAAGUAGUCUUCUACAGUTT against Cyp4f15", "z-score": "inactive: -0.0176"}, {"sequence": "GCUGCUUUGGCAACUUUCATT against Lix1", "z-score": "inactive: -0.696"}, {"sequence": "CGUUAGCUGUUAUGAUCUATT against Cept1", "z-score": "inactive: 0.203"}, {"sequence": "GGCAGUAUUGACUCCUACCTT against 6430548M08Rik", "z-score": "inactive: -0.973"}, {"sequence": "GGAUGCUACGUUCUGCUAGTT against Bcat2", "z-score": "inactive: 0.349"}, {"sequence": "GGAAGAAUCUGUUACUUUUTT against Rad1", "z-score": "inactive: -0.693"}, {"sequence": "GGAGUUUCUGGAAUGCAGGTT against Sec22c", "z-score": "inactive: 0.741"}, {"sequence": "GGCCUCAGAUAUAGGUCUCTT against Cln6", "z-score": "inactive: 0.513"}, {"sequence": "GGUCAGAAGAGAUCAAAAGTT against Ttc23", "z-score": "inactive: -0.0386"}, {"sequence": "GCUUCACCUAGAGAUUAUUTT against Dcun1d4", "z-score": "inactive: -0.557"}, {"sequence": "GCAGCUUUUUGAGGUGUUATT against Slc9a7", "z-score": "active: 3.07"}, {"sequence": "CGCAUUGCCAAACAACUCUTT against Gad2", "z-score": "inactive: 0.295"}, {"sequence": "GGAGAACGAUUUCGAUCGCTT against Cope", "z-score": "inactive: -0.356"}, {"sequence": "CCACUAAUUACAGUAACAUTT against Akr1c20", "z-score": "inactive: -1.11"}, {"sequence": "GGUACGCUCCAGGAAUAUCTT against Suds3", "z-score": "inactive: 0.584"}, {"sequence": "CCUUUUCUAUAGAUUCUCGTT against Vmn1r178", "z-score": "inactive: 0.529"}, {"sequence": "GCAUUUUGUGGAAAAGGCUTT against Olfr582", "z-score": "active: -2.19"}, {"sequence": "CGUGGAGAACUGGUAUCAGTT against Psg17", "z-score": "inactive: -0.699"}, {"sequence": "GGAGAUCCAGAAGAGACGATT against Mcub", "z-score": "inactive: -0.97"}, {"sequence": "GGAUUGAUUUUUGGAGGGCTT against Fxyd4", "z-score": "inactive: 0.569"}, {"sequence": "GGACACUUUACUUUUGAGATT against Lyrm1", "z-score": "inactive: -0.162"}, {"sequence": "GGUUUCAAACUCUUGUAAUTT against Pgrmc1", "z-score": "inactive: -0.139"}, {"sequence": "GGAACAUAUACUGGGCAACTT against Tcl1b1", "z-score": "inactive: 1.75"}, {"sequence": "GCACUUACUCAAAUGGAACTT against Cyp2j6", "z-score": "inactive: -0.396"}, {"sequence": "GCUUCCCUGGACCCAAUGUTT against Artn", "z-score": "inactive: 1.49"}]}]}
